Data published in patent US6555566B2, “Methods and materials for treating and preventing inflammation of mucosal tissue” (Mayo Foundation for Medical Education and Research, priority 1997, dated 2003).
At least one compound was matched to its structure with a doubt left.

Key:
[1] = test system: asthma patient having non-invasive fungus-induced rhinosinusitis; test: Itraconazole solution by nebulizer; assay type: in vivo, human; details: about two mL per day of about 10 mg itraconazole per mL PEG-400 in a nebulizer; after about two weeks
[2] = test system: non-invasive fungus-induced rhinosinusitis patients; test: Patient data collected during a one week period (amphotericin B nasal irrigations); assay type: in vivo, human; details: itraconazole solution twice a day, after only seven days; one of two switched patients
Description: Only previously seen patients that were instructed to use the antifungal amphotericin B nasal irrigations were entered into this study.
During a one week period, twenty patients returned to the physician's office (Table II). The average age of the returning patients was 47 years (range 16-74 years). The patients were using the amphotericin B irrigations for an average duration of about six months (range 1-16 months). […] In addition, some patients were using topical and systemic steroid therapy. Further, some patients were using an antibiotic nasal irrigation in addition to the antifungal irrigations. The antibacterial solution contained 80 mg gentamicin per L saline (Wilson's solution). Some patients mixed the antibacterial solution with the antifungal solution and then performed the nasal irrigations while others used each solution separately in a sequential manner. Some patients also had other diseases including asthma (15 of the 20 patients) and colitis (2 of the 20 patients).

## CCC(C)n1ncn(-c2ccc(N3CCN(c4ccc(OCC5COC(Cn6cncn6)(c6ccc(Cl)cc6Cl)O5)cc4)CC3)cc2)c1=O (centres unmarked) [itraconazole]
[1]
  outcome by overall symptom scores: improvement in both asthma and non-invasive fungus-induced rhinosinusitis conditions
[2]
  patient report after switching from amphotericin B solution: feeling better
